No constants are given. Whether binding was seen depends on the method and setting. Binding seen in cells or lysates may run through a third protein. Some results given as binding are weak or reduced against the parent protein; the word gives no strength. Where a sequence is shown, tags or fusion partners need not be part of it.
Target: T1, Mpc2 with a C-terminal Factor Xa cleavage site and octa-histidine tag (S. cerevisiae) (UniProt P38857)
T1 sequence: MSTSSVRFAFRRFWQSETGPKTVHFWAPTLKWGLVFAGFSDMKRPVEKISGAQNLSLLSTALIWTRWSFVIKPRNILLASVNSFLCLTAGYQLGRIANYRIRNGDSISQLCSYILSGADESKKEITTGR
Assay: pull-down; nickel-affinity co-purification: untagged Mpc1 co-expressed with His8-tagged partner in yeast mitochondria; solubilised in 1% LMNG, 20 mM Tris-HCl pH 7.4, 150 mM NaCl, 4 °C; bound to nickel Sepharose, washed with 40 mM imidazole, 0.1% LMNG, 0.1 mg/ml TOCL; released by on-column Factor Xa cleavage; SDS-PAGE with Coomassie stain and peptide mass fingerprinting; Mpc1/Mpc3 also purified in Triton X-100, DMNG or DDM

B1: Mpc1 (untagged), mitochondrial pyruvate carrier protein 1 from Saccharomyces cerevisiae (natural protein, S. cerevisiae, UniProt P53157 1-130, looked up)
chain: MSQPVQRAAARSFLQKYINKETLKYIFTTHFWGPVSNFGIPIAAIYDLKKDPTLISGPMTFALVTYSGVFMKYALSVSPKNYLLFGCHLINETAQLAQGYRFLKYTYFTTDEEKKALDKEWKEKEKTGKQ
notes: Mpc1, S. cerevisiae, UniProt P53157; codon-optimised synthetic gene; theoretical mass 15 kDa; also called unmodified Mpc1; source: S. cerevisiae mitochondria (SHY15 or W303-1B), co-expressed from pBEVY-GU with histidine-tagged Mpc3 or Mpc2; co-purified on nickel Sepharose in LMNG and tetraoleoyl cardiolipin
binding: binds
